# The exact form of at least one protein or probe is not confirmed. Weaker means in comparison with the reference protein, sequence or condition of that experiment.
# System: Mcm2-7(3K499A) complex (Saccharomyces cerevisiae)
# Assay: EMSA
# Conditions: 5 mM ATP, 10 mM Mg acetate, 50-400 nM complex, 1 nM DNA, complex reduced vs wild type, EMSA: 20 mM Tris-HCl pH 7.5, 10 mM Mg acetate, 100 uM EDTA, 5 mM DTT, 37 C, 10 min, 5% native TBE gel with 5% glycerol, 0.1% NP-40, 10 mM Mg acetate, recombinant protein, label: 5'-32P, single-stranded DNA
sequence,measurement,value
ATGTCCTAGCAAGCCAGAATTCGGCAGCGTCTTTTTTTTTTTTTTTTTTTTTTTTTTTTTTTTTTTTTTTTTTTTTTTTTTTTTTTTTTTT [90-base ssDNA oligonucleotide with (T)60 tail],binding result,binds more weakly

# From publication PMC3859580
